Some peptides are written in HELM: one residue between dots, names in brackets for other building blocks, links after the first $.
Assay: general procedure: solution-phase peptide synthesis; DCC; EDCI/HOBT/N-methylmorpholine

H-Ist-Aip-Leu-Pro-OTMSe
step yield (late stage modification step): 87%

Boc-Ist-Aip-Leu-Pro-OTMSe
step yield (coupling step): 83%

PEPTIDE1{[Cbz].[D-MeLeu].T.[Ist].[Aip].L.P.[Me2Tyr]}$PEPTIDE1,PEPTIDE1,3:R3-8:R2$$$V2.0
cyclisation yield (cyclisation step, on linear precursor): 40%
